Results of single-concentration screens

The chains behind the UniProt entries cited, without tags or fusion partners. Residues count along the entry.
UniProt P9WFT3, whole entry: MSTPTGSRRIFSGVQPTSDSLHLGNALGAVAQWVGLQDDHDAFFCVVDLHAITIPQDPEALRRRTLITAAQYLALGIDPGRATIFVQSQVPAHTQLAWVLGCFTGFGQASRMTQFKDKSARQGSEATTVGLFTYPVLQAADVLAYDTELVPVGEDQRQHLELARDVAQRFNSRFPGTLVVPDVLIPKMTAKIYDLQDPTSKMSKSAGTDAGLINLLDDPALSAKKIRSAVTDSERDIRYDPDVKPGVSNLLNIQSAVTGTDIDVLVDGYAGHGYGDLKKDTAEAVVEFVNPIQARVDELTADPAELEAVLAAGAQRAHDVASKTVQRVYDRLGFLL
UniProt Q8IDJ8, 1-583: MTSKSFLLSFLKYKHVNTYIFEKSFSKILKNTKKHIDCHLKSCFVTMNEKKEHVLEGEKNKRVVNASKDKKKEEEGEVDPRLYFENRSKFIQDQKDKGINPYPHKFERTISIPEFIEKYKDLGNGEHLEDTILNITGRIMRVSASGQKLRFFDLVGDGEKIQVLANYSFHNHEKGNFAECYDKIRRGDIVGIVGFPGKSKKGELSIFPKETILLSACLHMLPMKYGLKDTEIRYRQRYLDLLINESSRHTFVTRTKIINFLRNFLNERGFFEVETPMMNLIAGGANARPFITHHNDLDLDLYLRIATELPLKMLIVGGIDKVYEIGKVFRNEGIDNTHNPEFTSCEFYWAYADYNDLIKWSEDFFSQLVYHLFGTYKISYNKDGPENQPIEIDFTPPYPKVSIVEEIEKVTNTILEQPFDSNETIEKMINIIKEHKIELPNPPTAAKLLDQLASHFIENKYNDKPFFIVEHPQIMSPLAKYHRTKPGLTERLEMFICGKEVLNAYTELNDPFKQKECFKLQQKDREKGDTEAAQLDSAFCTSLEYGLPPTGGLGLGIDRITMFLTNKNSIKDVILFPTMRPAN
UniProt P9WNZ1, whole entry: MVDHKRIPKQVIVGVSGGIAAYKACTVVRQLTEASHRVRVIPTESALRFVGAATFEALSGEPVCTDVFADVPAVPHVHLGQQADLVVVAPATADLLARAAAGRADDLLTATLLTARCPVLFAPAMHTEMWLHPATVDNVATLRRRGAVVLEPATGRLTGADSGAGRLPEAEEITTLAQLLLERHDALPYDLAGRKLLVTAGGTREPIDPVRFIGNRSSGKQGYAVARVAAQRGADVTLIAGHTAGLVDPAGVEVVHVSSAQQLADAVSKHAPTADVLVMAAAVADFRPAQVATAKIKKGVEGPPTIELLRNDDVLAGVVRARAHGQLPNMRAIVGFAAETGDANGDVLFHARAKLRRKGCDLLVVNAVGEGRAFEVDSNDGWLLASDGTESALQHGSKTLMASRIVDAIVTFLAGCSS
UniProt P9WPC5, whole entry: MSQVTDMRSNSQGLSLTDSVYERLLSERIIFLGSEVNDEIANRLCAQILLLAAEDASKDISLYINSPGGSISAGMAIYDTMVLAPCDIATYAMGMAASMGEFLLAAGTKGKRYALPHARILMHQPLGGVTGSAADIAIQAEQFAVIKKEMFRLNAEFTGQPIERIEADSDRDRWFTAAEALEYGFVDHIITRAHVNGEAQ
UniProt P9WPC3, whole entry partner: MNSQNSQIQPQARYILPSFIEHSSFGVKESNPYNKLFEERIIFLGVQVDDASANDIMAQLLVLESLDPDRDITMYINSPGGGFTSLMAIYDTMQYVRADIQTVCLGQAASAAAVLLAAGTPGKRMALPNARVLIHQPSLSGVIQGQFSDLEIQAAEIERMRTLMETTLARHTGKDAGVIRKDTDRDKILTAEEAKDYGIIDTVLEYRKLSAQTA
UniProt Q4DA54, 1-478: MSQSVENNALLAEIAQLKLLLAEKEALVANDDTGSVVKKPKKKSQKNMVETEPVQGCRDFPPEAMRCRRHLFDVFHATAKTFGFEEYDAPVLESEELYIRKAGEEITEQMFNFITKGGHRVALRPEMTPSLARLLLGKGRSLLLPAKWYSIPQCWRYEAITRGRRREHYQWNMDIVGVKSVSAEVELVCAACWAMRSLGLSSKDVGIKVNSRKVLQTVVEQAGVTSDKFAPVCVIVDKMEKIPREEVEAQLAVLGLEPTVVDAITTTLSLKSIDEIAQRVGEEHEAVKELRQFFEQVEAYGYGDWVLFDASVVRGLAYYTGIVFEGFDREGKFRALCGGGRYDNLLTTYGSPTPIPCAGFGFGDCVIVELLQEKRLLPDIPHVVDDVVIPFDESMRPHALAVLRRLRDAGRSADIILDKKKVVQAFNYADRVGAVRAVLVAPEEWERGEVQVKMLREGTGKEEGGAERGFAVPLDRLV

Measurements from “University of Dundee, Small-Polar-MMV Screening Library” (2021), ChEMBL document CHEMBL3988442.

MtTrpRS: 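Tryptophan-tRNA ligase, Mycobacterium tuberculosis (UniProt P9WFT3). Enzyme assay of tryptophanyl-tRNA synthetase; the read-out is not stated. Concentration: 10 µM. Direction is not recorded; retested compounds ran higher, which suggests that high means inhibition. About 65,000 compounds were tested under these conditions; 0.098% (about 64) showed 50% or more at least once.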
PfKRS1: 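Enzyme assay of the cytosolic lysyl-tRNA synthetase in 384-well plates, read by luminescence. Target: Lysine-tRNA ligase, Plasmodium falciparum 3D7 (UniProt Q8IDJ8). Tested at 30 µM. Higher reads as stronger inhibition, judged from the few compounds that gave an IC50. Size under these conditions: about 69,000 compounds, about 49 of them at 50% or above in at least one test.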
CoaBC: 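Enzyme assay of CoaBC with a phosphate dye (Biomol Green) read at 650 nm. Target: Coenzyme A biosynthesis protein CoaBC, Mycobacterium tuberculosis (UniProt P9WNZ1). Compounds at 30 µM. Direction is inferred from only a few compounds that gave an IC50; most scored high, so higher reads as stronger inhibition. Most strong results did not repeat in a second test. Of about 67,000 compounds tested this way, about 40 (0.06%) reached 50% or more in at least one test.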
ClpP1P2: 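ClpP1P2, Mycobacterium tuberculosis (UniProt P9WPC5 and UniProt P9WPC3). Protease assay of ClpP1P2, read by the AMC dye that it sets free. Tested at 50 µM. Direction is inferred from only a few compounds that gave an IC50; most scored high, so higher reads as stronger inhibition. Most other retested compounds had strongly negative values. Of about 69,000 compounds tested this way, about 10 (0.015%) reached 50% or more in at least one test.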
TcHisRS: 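Histidine-tRNA ligase, Trypanosoma cruzi CL Brener (UniProt Q4DA54). Enzyme assay of histidyl-tRNA synthetase; the read-out is not stated. Tested at 30 µM. The record gives no direction; compounds that gave an IC50 in retests scored well above the rest, so higher reads as stronger inhibition. About 69,000 compounds were tested under these conditions; 0.045% (about 31) showed 50% or more at least once.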

Values are the deposited “Percent Effect”, in %.
The controls that fix the scale are not given in the record; negative values are as filed.
Compounds were drawn at random from those tested, without regard to their results.
Two or more numbers in one place are separate tests of the same structure; such repeats can differ widely.

With COCCn1c2c(ccc1=O)CCN(C(=O)C1CC=CC1)CC2 the screen gave PfKRS1: 3.758%; CoaBC: 2.788%; ClpP1P2: -11.86%; TcHisRS: 11.73%.
With CCOCCN1CCC(c2cnccn2)CC1 the screen gave MtTrpRS: 8.464%; PfKRS1: 0.6834%; CoaBC: -3.11%; ClpP1P2: 4.575%; TcHisRS: 2.682%.
With Cn1nc(C(=O)N2CCCCCC2)cc1NC(=O)c1ccccc1 the screen gave MtTrpRS: 3.456%; PfKRS1: 0.04482%; CoaBC: -0.4854%; ClpP1P2: 26.4%; TcHisRS: 10.89%.
With C[C@H](O)CNC(=O)c1cnc(-c2ccccc2)nc1O the screen gave MtTrpRS: -0.8514%; PfKRS1: 0.555%; CoaBC: 3.625%; ClpP1P2: -5.05%; TcHisRS: -0.8333%.
With O=C(N1CCOCC1)N1CCc2ncc(CN3CCCCC3)n2CC1 the screen gave MtTrpRS: -6.568%; PfKRS1: 9.382%; CoaBC: 6.25%; ClpP1P2: -0.9945%; TcHisRS: 0.9804%.
With CC(C)OC(=O)c1ccc(Cl)c(NC(=O)NCCN2CCOCC2)c1 the screen gave MtTrpRS: -6.172%; PfKRS1: 4.513%; CoaBC: 2%; ClpP1P2: -1.71%; TcHisRS: 3.448%.
With O=C(NCCCN1CCOCC1)c1ccc(Cl)cc1Cl the screen gave MtTrpRS: 4.325%; PfKRS1: 3.399%; CoaBC: 1.523%; ClpP1P2: -13.05%; TcHisRS: 1.345%.
With O=C(c1cccc(S(=O)(=O)NC[C@@H]2C[C@H](F)CN2)c1)N1CCCCC1 the screen gave MtTrpRS: 0.06915%; PfKRS1: 2.448%; CoaBC: 1.485%; ClpP1P2: -11.18%; TcHisRS: 6.024%.
With Cc1noc(NC(=O)c2ccccc2)n1 the screen gave MtTrpRS: 0.6482%; PfKRS1: 1.204%; CoaBC: 0.1304%; ClpP1P2: -0.3414%; TcHisRS: 1.156%.
With CC(C(=O)O)N1CCc2onc(-c3ccc4c(c3)OCO4)c2C1 (centres undefined) the screen gave MtTrpRS: -1.002%; PfKRS1: 3.811%; CoaBC: 0.1218%; ClpP1P2: -1.584%; TcHisRS: 10.12%.
With Cc1ccc(-n2nnnc2C2(NCc3ccco3)CCCC2)cc1 the screen gave MtTrpRS: -2.414%; PfKRS1: 2.9%; CoaBC: -11.51%; ClpP1P2: -7.792%; TcHisRS: 1.724%.
With CCn1c(CC2CCN(C(=O)c3cc(CC(C)C)on3)CC2)n[nH]c1=O the screen gave MtTrpRS: -2.236%; PfKRS1: -2.043%; CoaBC: 11.6%; ClpP1P2: 13.74%; TcHisRS: -2.299%.
With COCc1nc(C(=O)N2CCCC2c2cc(C)no2)cs1 (centres undefined) the screen gave MtTrpRS: -4.473%; PfKRS1: 0.006727%; CoaBC: 3.944%; ClpP1P2: -1.249%; TcHisRS: 1.127%.
With NC(=O)C1CCCN1Cc1cccc(NC(=O)c2ccc(Cl)cc2F)c1 (centres undefined) the screen gave MtTrpRS: 4.707%; PfKRS1: 2.425%; CoaBC: 8.264%; ClpP1P2: 10.26%; TcHisRS: 11.67%.
With CC(=O)N1CCN(C(=O)C(C)Nc2ccc3ncsc3c2)CC1 (centres undefined) the screen gave MtTrpRS: -0.1037%; PfKRS1: 6.086%; CoaBC: -4.912%; ClpP1P2: 10.56%; TcHisRS: 13.79%.
With CC(C)COC(=O)N1CCCN(C(=O)c2ccnc(N(C)C)c2)CC1 the screen gave MtTrpRS: 3.722%; PfKRS1: -0.4909%; CoaBC: 1.583%; ClpP1P2: -5.503%; TcHisRS: 11.31%.
With O=c1oc2ccccc2n1CCCN1CCCC1c1ccc(O)cc1 (centres undefined) the screen gave MtTrpRS: -9.185%; PfKRS1: 4.748%; CoaBC: 4.233% and 35.71%; ClpP1P2: -7.604%; TcHisRS: 6.077%.

Some entries from above, unchanged:

O=C(N1CCOCC1)N1CCc2ncc(CN3CCCCC3)n2CC1 read MtTrpRS: -6.568%; PfKRS1: 9.382%; CoaBC: 6.25%; ClpP1P2: -0.9945%; TcHisRS: 0.9804%.
C[C@H](O)CNC(=O)c1cnc(-c2ccccc2)nc1O read MtTrpRS: -0.8514%; PfKRS1: 0.555%; CoaBC: 3.625%; ClpP1P2: -5.05%; TcHisRS: -0.8333%.